By UniProt entry, the sequences of proteins in these tests, tags left out. Where a name states a change or a piece, a line headed by the entry shows the natural chain unless it says otherwise.
UniProt Q9H4E5: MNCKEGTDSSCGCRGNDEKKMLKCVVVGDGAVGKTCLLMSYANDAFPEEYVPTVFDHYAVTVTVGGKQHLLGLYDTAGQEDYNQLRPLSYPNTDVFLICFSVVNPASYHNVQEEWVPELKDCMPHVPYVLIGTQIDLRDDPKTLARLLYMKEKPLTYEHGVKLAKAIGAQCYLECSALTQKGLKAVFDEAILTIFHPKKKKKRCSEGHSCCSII
UniProt Q9Y2X7: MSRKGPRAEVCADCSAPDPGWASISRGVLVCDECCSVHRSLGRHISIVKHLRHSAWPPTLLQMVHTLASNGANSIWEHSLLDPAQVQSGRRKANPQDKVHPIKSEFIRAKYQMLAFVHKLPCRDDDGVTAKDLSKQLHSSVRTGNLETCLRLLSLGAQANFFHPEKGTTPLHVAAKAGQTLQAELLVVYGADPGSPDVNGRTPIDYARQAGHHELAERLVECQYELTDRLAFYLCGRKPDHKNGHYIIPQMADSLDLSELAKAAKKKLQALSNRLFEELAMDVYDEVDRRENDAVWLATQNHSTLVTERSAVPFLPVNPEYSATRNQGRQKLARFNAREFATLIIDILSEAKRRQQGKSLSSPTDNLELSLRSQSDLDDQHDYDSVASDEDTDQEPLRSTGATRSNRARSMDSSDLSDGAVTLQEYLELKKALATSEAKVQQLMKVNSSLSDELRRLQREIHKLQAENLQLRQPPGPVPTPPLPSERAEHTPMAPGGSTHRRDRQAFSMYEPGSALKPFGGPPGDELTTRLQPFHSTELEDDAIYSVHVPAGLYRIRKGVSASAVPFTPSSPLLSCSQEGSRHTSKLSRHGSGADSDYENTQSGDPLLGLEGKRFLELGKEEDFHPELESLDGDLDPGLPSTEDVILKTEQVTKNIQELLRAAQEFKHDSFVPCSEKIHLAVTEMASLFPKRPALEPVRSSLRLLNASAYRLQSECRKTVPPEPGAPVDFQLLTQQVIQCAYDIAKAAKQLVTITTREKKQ
UniProt Q14155: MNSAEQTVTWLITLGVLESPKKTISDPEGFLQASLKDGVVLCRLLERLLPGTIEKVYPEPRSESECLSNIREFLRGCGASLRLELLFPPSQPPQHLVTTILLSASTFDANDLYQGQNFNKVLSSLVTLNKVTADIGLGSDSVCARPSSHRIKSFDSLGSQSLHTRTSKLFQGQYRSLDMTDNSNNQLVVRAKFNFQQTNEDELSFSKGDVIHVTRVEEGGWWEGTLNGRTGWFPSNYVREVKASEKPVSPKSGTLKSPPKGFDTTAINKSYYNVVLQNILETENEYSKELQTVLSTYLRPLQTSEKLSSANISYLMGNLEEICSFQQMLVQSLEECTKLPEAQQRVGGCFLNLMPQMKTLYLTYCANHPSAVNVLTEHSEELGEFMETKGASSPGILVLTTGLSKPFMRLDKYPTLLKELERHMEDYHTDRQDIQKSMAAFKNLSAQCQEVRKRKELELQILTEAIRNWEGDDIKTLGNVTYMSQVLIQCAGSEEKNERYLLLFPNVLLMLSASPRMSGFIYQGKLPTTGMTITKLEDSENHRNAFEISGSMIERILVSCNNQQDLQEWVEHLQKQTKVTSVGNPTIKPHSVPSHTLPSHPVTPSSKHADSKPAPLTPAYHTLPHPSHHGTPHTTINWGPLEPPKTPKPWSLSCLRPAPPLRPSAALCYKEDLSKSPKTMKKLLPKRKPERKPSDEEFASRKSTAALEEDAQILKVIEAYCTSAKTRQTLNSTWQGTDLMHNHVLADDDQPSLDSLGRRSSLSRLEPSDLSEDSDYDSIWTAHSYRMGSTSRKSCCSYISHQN

According to article PMC4106786:

How the values were obtained:
[1] = target: Gal4 DNA-binding domain fusion of dnRhoJ (T35N) lacking the C-terminal CAAX box (UniProt Q9H4E5); test: two-hybrid; Gal4 DNA-binding domain fusions (pGBT9) and Gal4 activation domain fusions (pACT2) in yeast PJ69-4A; growth on plates lacking histidine with 3 mM 3-AT, 3 to 5 days at 30°C
[2] = target: Gal4 DNA-binding domain fusion of daRhoJ (Q79L) lacking the C-terminal CAAX box (UniProt Q9H4E5); test: as above

binding [1]	binding [2]	Substance
no binding	binds	Gal4 activation domain fusion of GIT1 (from UniProt Q9Y2X7 1-761)
	no binding	Gal4 activation domain fusion of β-PIX (from UniProt Q14155 1-803)

These are yes or no findings as the source states them, for the method shown. For part of these data: Binding calls can cover weak binding; strength is not graded here.
